For one substance, binding results are on record in article PMC5261007.

The chains behind the UniProt entries cited, without tags or fusion partners.
UniProt P10070: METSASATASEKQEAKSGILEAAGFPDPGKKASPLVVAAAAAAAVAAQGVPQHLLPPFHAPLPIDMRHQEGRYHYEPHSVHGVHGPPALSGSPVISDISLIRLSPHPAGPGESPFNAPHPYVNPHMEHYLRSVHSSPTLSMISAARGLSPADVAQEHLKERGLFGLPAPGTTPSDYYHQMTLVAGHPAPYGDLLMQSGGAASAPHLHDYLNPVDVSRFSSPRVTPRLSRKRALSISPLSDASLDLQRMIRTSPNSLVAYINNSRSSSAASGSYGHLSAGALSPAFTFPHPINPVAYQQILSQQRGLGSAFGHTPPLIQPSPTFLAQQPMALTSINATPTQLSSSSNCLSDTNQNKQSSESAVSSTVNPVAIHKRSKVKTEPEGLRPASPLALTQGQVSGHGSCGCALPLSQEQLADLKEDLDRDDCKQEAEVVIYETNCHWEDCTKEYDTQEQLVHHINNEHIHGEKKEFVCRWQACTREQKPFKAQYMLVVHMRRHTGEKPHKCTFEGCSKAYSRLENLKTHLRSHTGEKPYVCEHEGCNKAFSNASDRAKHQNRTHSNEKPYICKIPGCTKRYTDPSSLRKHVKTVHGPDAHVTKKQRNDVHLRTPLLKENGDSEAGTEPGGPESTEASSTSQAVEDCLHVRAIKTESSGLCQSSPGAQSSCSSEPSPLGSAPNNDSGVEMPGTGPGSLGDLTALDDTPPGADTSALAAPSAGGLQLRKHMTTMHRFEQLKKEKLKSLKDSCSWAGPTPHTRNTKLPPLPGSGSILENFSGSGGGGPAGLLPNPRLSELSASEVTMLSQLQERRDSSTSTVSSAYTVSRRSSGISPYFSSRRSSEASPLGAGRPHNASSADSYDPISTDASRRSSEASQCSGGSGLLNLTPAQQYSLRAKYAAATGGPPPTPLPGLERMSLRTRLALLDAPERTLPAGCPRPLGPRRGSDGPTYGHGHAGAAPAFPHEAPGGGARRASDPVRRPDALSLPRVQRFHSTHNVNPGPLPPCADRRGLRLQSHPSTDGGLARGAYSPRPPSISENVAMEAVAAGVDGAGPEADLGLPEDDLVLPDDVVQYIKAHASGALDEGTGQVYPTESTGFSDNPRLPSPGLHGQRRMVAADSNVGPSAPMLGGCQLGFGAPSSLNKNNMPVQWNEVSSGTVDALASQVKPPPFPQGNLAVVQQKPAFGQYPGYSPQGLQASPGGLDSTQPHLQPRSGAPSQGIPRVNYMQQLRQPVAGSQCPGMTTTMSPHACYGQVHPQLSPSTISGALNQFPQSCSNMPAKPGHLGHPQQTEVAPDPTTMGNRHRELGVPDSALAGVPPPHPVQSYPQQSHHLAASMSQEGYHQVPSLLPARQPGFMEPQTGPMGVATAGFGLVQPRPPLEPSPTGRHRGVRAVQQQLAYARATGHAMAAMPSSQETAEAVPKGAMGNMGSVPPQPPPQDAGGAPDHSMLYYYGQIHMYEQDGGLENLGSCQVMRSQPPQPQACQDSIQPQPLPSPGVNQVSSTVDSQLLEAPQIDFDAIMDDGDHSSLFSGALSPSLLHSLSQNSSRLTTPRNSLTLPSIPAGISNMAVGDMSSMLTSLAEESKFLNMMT
UniProt O43791: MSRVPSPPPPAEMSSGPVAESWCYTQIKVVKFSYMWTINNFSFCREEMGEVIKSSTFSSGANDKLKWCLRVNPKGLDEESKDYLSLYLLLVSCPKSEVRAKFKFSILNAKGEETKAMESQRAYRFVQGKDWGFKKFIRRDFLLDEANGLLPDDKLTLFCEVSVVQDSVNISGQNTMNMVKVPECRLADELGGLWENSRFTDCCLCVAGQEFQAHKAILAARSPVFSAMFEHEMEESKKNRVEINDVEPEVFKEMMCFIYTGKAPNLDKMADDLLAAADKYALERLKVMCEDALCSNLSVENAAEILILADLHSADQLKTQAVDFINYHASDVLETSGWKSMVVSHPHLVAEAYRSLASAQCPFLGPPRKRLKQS

No constants are given. Whether binding was seen depends on the method and setting. In cells and extracts the contact can be indirect. Some results given as binding are weak or reduced against the parent protein; the word gives no strength.

This assay addresses Gli2 (human (endogenous in Lovo)) (UniProt P10070). As to the kind of experiment: co-IP; supernatant of Lovo cell lysates incubated with indicated antibodies and protein-G agarose beads at 4 °C overnight; washed with 0.1% Lubrol-PX, 50 mM KCl, 2 mM CaCl2, 20% glycerol, 50 mM Tris-HCl, pH 7.4; immunoblot; goat anti-rabbit IgG as negative control.

In the case of “speckle-type POZ protein (SPOP) (from UniProt O43791 1-374)”, the binding entry is “binds”.
